Earlier results, collected in patent US20240170163A1, “SYSTEMS AND METHODS FOR DETECTING NEW DRUG PROPERTIES IN TARGET-BASED DRUG-DRUG SIMILARITY NETWORKS” (priority 2021, published 2024).
For at least one compound, name, drawing or mass did not settle the structure.

Test system: systemic inflammation
Conditions: high-risk and rheumatoid arthritis patients; independent of lipid regulation effects

SMILES: CC(C)OC(=O)C(C)(C)Oc1ccc(C(=O)c2ccc(Cl)cc2)cc1 [Fenofibrate]
- systemic inflammation: reduces the systemic inflammation
